Assay results reported in patent publication US12161750B2, “Antibiotic formulations for lower back pain” (Persica Pharmaceuticals Ltd., priority 2016, dated 2024).
Some of these results come from one statement about several compounds together.

Test: Syringeability and injectability through a 25 gauge, 4.69 inch needle
Assay type: physicochemical
Conditions: poloxamer hydrogel formulations after being removed from fridge storage

Compound: CN[C@H](CC(C)C)C(=O)N[C@H]1C(=O)N[C@@H](CC(N)=O)C(=O)N[C@H]2C(=O)N[C@H]3C(=O)N[C@H](C(=O)N[C@H](C(=O)O)c4cc(O)cc(O)c4-c4cc3ccc4O)[C@H](O)c3ccc(c(Cl)c3)Oc3cc2cc(c3O[C@@H]2O[C@H](CO)[C@@H](O)[C@H](O)[C@H]2O[C@H]2C[C@](C)(N)[C@H](O)[C@H](C)O2)Oc2ccc(cc2Cl)[C@H]1O [Vancomycin]
- time formulations remain liquid and injectable at Room Temperature: up to 3 h
